Measured values taken from patent US11236072B2, “N-[(pyrimidinylamino)propanyl]-,n-[pyridylamino)propanyl]- and n-[(pyrazinylaminol)propanyl]arylcarboxamides” (Boehringer Ingelheim International GmbH, priority 2017, dated 2022).
The structures given here were assigned with low confidence; some may be wrong.

By UniProt entry, the sequences of proteins in these tests, tags left out.
UniProt O43613, whole entry: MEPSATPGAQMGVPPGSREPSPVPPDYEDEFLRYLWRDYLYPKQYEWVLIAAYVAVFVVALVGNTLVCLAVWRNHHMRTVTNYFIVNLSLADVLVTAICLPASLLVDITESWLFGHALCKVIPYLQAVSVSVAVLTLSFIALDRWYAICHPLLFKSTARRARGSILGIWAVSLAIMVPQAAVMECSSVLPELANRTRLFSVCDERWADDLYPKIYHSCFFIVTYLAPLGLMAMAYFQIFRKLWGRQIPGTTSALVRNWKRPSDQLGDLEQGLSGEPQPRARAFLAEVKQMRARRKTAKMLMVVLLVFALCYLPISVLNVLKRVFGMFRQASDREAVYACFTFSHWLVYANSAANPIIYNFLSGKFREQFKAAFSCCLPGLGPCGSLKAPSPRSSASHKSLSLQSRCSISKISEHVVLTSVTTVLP
UniProt O43614, whole entry: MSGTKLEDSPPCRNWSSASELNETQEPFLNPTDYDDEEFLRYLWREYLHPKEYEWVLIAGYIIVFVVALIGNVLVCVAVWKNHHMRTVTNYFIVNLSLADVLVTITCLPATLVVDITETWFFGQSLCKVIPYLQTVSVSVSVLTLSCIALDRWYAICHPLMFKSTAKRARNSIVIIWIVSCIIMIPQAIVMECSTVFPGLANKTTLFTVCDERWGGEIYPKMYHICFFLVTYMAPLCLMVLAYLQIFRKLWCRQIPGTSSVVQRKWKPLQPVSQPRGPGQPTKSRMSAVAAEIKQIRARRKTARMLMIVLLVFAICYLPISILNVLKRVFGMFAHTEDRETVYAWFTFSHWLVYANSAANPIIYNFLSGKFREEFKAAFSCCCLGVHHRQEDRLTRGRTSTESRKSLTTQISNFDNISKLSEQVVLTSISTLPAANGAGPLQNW

How the values were obtained:
[1] = target: human Orexin 1 receptor (Homo sapiens, UniProt O43613); experiment: Assay A: in vitro testing of OX1R potency, OX1R IP1; assay type: cell-based; details: for Kb: read-out: OX1R Kb, 50 nM Orexin A concentration
[2] = target: human orexin 2 receptor (Homo sapiens, UniProt O43614)
[3] = system: MDCK-MDR1 cells; details: pH 7.4

Row | SMILES | Kb [1] [µM] | Kb [2] [µM] | efflux ratio [3] | higher potency (OX1R) ([1]; compared to Example 73 in WO2016/034882)
1 | CCN(C(=O)c1cccc(F)c1-n1nccn1)[C@@H](C)CNc1ncc(Cl)cn1 | 0.00021 | 0.0263 | < 3 | –
2 | CCN(C(=O)c1cc(Cl)cnc1-n1nccn1)[C@@H](C)CNc1ncc(C(F)(F)F)cn1 | 0.000166 | 0.167 | < 3 | approximately 2 fold
3 | CCN(C(=O)c1cc(F)cc(F)c1-n1nccn1)[C@@H](C)CNc1ncc(Br)cn1 | 0.000184 | 0.0421 | < 3 | –
